# Laboratory results reported in article PMC9223585, “Structural and Functional Insights into CP2c Transcription Factor Complexes” (International Journal of Molecular Sciences, 2022).
# Key:
# [1] = biological target: T1, CP2c (TFCP2, LSF + homotetramer tCP2c [C4]) (UniProt Q9ERA0); assay: DNA co-immunoprecipitation (DIP); details: DIP: 4% glycerol, 10 mM Tris-HCl pH 7.4, 1 mM DTT, 1 mM EDTA, 0.1% NP-40, room temp 15 min, titration: 0-100 nM biotin dsDNA, 293T nuclear lysate, streptavidin beads, protein in a lysate after overexpression, label: 32P (Klenow fill-in)
# T1 sequence (looked up, limits assumed): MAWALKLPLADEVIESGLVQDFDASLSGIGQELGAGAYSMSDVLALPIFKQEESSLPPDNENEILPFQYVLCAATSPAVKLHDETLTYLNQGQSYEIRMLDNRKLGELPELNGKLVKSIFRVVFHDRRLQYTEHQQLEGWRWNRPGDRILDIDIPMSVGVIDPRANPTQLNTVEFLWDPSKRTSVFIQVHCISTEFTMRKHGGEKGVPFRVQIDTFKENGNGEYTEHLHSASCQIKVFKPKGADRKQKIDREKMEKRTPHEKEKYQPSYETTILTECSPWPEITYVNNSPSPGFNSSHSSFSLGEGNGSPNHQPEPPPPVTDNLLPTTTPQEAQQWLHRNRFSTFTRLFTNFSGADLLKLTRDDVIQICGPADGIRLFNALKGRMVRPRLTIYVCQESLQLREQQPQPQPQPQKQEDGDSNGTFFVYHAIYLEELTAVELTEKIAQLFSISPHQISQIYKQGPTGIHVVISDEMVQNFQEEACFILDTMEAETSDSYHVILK
# [2] = test system: CP2c (TFCP2, LSF + homotetramer tCP2c [C4]) + CP2b (in CBP complex [C2B2P2]2) + Pias1 (in CBP complex [C2B2P2]2); assay: DNA co-immunoprecipitation (DIP); details: DIP: 4% glycerol, 10 mM Tris-HCl pH 7.4, 1 mM DTT, 1 mM EDTA, 0.1% NP-40, room temp 15 min, titration: 0-100 nM biotin dsDNA, 293T nuclear lysate, streptavidin beads, protein in a lysate after overexpression, label: 32P (Klenow fill-in)
# [3] = biological target: T2, CP2c endogenous (UniProt Q12800); assay: pull-down (DSP crosslink, Western blot); details: DSP pull-down: 2 mM DSP 30 min room temp, beads overnight 4 C, protein in an extract
# T2 sequence (looked up, limits assumed): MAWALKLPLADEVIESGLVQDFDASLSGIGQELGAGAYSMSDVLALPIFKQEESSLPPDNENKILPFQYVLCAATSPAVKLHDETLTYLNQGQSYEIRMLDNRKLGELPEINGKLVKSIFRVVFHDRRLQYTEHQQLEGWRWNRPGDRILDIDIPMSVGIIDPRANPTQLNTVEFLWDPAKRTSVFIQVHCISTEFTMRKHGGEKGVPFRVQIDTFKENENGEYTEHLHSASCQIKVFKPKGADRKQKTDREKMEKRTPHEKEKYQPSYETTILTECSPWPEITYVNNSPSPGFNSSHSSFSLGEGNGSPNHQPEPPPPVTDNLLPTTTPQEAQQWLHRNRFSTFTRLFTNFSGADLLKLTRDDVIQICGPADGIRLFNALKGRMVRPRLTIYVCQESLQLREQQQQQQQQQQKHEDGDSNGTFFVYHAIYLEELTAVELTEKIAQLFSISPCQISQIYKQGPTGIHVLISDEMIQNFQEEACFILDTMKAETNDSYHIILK
# [4] = test system: CP2c endogenous + CP2b endogenous + PIAS1 endogenous; assay: pull-down (DSP crosslink, Western blot); details: DSP pull-down: 2 mM DSP 30 min room temp, beads overnight 4 C, protein in an extract
# [5] = biological target: T1, CP2c (TFCP2, LSF + homotetramer tCP2c [C4]); assay: pull-down titration; details: DSP pull-down: 2 mM DSP 30 min room temp, beads overnight 4 C, protein in a lysate after overexpression, label: 5' biotin both strands; for Kd: CP2c read-out; for binding result: Kd only in figure
# [6] = test system: CP2c (TFCP2, LSF + homotetramer tCP2c [C4]) + CP2b (in CBP complex [C2B2P2]2) + Pias1 (in CBP complex [C2B2P2]2); assay: pull-down titration; details: DSP pull-down: 2 mM DSP 30 min room temp, beads overnight 4 C, protein in a lysate after overexpression, label: 5' biotin both strands
# [7] = letters put together from the description
# [8] = label: 5' biotin, letters put together from the description
sequence,measurement,setting,value
CGAGTCCATCTGATAAGACTTATCAGCAGCCCCAGATTGAGCCAGATTGAGCGTAAGCCCCAG (double strand) [Gata1 enhancer Mut2/4 (DIP)],binding result,[1]; [7],binds
same,binding result,[2]; [7],no binding
CGAGTCCATCTGATAAGACTTATCTGCTGCCACAGAGCAGGTAAGAGCTGGCGTAAGCCCCAG (double strand) [Gata1 enhancer Mut1/3 (Bio)],binding result,[3]; label: 5' biotin both strands,binds
same,binding result,[4]; label: 5' biotin both strands,no binding
CGAGTCCATCTGATAAGACTTATCTGCTGCCCCAGAGCAGGCCAGAGCTGGCGTAAGCCCCAG (double strand) [Gata1 enhancer WT (Bio)],Kd,[5]; CP2b and Pias1 co-expressed,0.00956 µM
same,Kd,[6]; CP2b read-out,0.0141 µM
same,Kd,[6]; Pias1 read-out,0.0142 µM
same,binding result,[4]; label: 5' biotin both strands,binds
GATCCAAAGTTTTACTCGGTAGAGCAAGCACAAACCAGG (double strand) [Hba-a2 Mut1 (Bio)],Kd,[5]; value from range 9.53 to 10.55 for Mut 4 and Mut 1,0.0106 µM
same,binding result,[4]; label: 5' biotin both strands,binds
GATCCAAAGTTTTACTCGGTAGAGCAAGCACAAATCAGG (double strand) [Hba-a2 Mut1/4 (Bio)],binding result,[5],binds more weakly
GATCCAAAGTTTTACTCGGTAGAGTAAGCACAAACCAGG (double strand) [Hba-a2 Mut1/3 (Bio)],binding result,[3]; [8],no binding
same,binding result,[4]; [8],no binding
GATCCAAAGTTTTATTCGGTAGAGCAAGCACAAACCAGG (double strand) [Hba-a2 Mut1/2 (Bio)],binding result,[5],binds more weakly
same,binding result,[3]; label: 5' biotin both strands,binds
same,binding result,"[4]; only CP2c found, label: 5' biotin both strands",no binding
GATCCCAAGTTTTACTCGGTAGAGCAAGCACAAACCAGG (double strand) [Hba-a2 promoter WT (Bio)],Kd,[5]; CP2b and Pias1 co-expressed,0.00417 µM
same,binding result,[4]; label: 5' biotin both strands,binds
GATCCCAAGTTTTACTCGGTAGAGCAAGCACAAATCAGG (double strand) [Hba-a2 Mut4 (Bio)],Kd,[5]; CP2b and Pias1 co-expressed,0.00953 µM
same,Kd,[6]; CP2b read-out,0.015 µM
same,Kd,[6]; Pias1 read-out,0.0151 µM
GATCCCAAGTTTTACTCGGTAGAGTAAGCACAAATCAGG (double strand) [Hba-a2 Mut3/4 (Bio)],Kd,[5],0.0254 µM
same,binding result,[6]; two half-sites prevent CBP binding,no binding
GCTAGCCGAGTCCATCTGATAAGACTTATCTGCTGCCACAGAGCAGGTAAGAGCTGGCGTAAGCCCCAG / CTCGAGCTGGGGCTTACGCCAGCTCTTACCTGCTCTGTGGCAGCAGATAAGTCTTATCAGATGGACTCG [Gata1 enhancer Mut1/3 (DIP)],binding result,[1],binds
same,binding result,[2],no binding
GCTAGCCGAGTCCATCTGATAAGACTTATCTGCTGCCCCAGAGCAGGCCAGAGCTGGCGTAAGCCCCAG / CTCGAGCTGGGGCTTACGCCAGCTCTGGCCTGCTCTGGGGCAGCAGATAAGTCTTATCAGATGGACTCG [Gata1 enhancer WT (DIP)],binding result,[2],binds
GCTAGCGATCCAAAGTTTTACTCGGTAGAGTAAGCACAAACCAGG / CTCGAGCCTGGTTTGTGCTTACTCTACCGAGTAAAACTTTGGATC [Hba-a2 Mut1/3 (DIP)],binding result,[1]; no two consecutive half-sites,no binding
same,binding result,[2],no binding
GCTAGCGATCCCAAGTTTTACTCGGTAGAGCAAGCACAAACCAGG / CTCGAGCCTGGTTTGTGCTTGCTCTACCGAGTAAAACTTGGGATC [Hba-a2 promoter WT (DIP)],binding result,[1]; CP2c alone,binds
same,binding result,[2],binds

# Construct, isoform or probe ends are uncertain for at least one entry. Where cells or extracts were used, other partners may take part. For part of these data: Negatives hold for the conditions tested. For part of these data: At least one verdict was read from the data and is not stated in words by the source. For part of these data: Where a protein sequence is shown, tags need not be part of it. For part of these data: The comparison behind a weaker result is the experiment's own reference, which may not be listed here.
